{
  "sequences": {"note": "Sequences of proteins named here, by UniProt entry; tags and fusion partners are left off. A change or cut given only in a name is not applied to a line headed by its entry.", "UniProt P25445": "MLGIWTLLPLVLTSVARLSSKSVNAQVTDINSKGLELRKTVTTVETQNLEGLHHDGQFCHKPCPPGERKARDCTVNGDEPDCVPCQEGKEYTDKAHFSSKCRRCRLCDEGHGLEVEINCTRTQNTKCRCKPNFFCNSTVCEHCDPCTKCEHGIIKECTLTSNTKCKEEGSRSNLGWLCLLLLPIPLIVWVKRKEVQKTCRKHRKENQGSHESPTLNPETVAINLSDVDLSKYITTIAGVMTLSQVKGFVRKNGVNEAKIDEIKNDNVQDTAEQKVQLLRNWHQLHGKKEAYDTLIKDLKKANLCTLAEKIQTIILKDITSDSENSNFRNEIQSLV"},
  "source": "patent US20120294856A1",
  "molecules": {"B1": {"name": "Sck (SHC (Src homology 2 domain containing) transforming protein 2) (protein)", "chain": "MTQGPGGRAPPAPPAPPEPEAPTTFCALLPRMPQWKFAAPGGFLGRGPAAARAAGASGGADPQPEPAGPGGVPALAAAVLGACEPRCAAPCPLPALSRCRGAGSRGSRGGRGAAGSGDAAAAAEWIRKGSFIHKPAHGWLHPDARVLGPGVSYVVRYMGCIEVLRSMRSLDFNTRTQVTREAINRLHEAVPGVRGSWKKKAPNKALASVLGKSNLRFAGMSISIHISTDGLSLSVPATRQVIANHHMPSISFASGGDTDMTDYVAYVAKDPINQRACHILECCEGLAQSIISTVGQAFELRFKQYLHSPPKVALPPERLAGPEESAWGDEEDSLEHNYYNSIPGKEPPLGGLVDSRLALTQPCALTALDQGPSPSLRDACSLPWDVGSTGTAPPGDGYVQADARGPPDHEEHLYVNTQGLDAPEPEDSPKKDLFDMRPFEDALKLHECSVAAGVTAAPLPLEDQWPSPPTRRAPVAPTEEQLRQEPWYHGRMSRRAAERMLRADGDFLVRDSVTNPGQYVLTGMHAGQPKHLLLVDPEGVVRTKDVLFESISHLIDHHLQNGQPIVAAESELHLRGVVSREP"}},
  "key": {"[1]": {"molecular_target": "T1, SH2 domain from Sck (Homo sapiens (Human)) (UniProt P98077)", "T1 sequence": "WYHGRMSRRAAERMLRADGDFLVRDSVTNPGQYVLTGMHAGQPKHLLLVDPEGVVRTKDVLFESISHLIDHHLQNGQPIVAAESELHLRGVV", "assay": "Transsignal SH2 Domain Array with cell lysates"}, "[2]": {"molecular_target": "T1, SH2 domain from Sck (Homo sapiens (Human))", "assay": "Transsignal SH2 Domain Array with stimulated cell lysates"}, "[3]": {"molecular_target": "CD95 (Homo sapiens (Human)) (UniProt P25445)", "assay": "co-immunoprecipitation from cell lysates"}, "[4]": {"molecular_target": "CD95 (Homo sapiens (Human)) (UniProt P25445)", "assay": "co-immunoprecipitation from PANC1 and Colo357 lysates after CD95L-T4 stimulation"}, "[5]": {"molecular_target": "CD95 (Homo sapiens (Human)) (UniProt P25445)", "assay": "co-immunoprecipitation from cell lysates, western blot for Sck"}},
  "note": "These are yes or no findings as the source states them, for the method shown. For some assays here: Binding seen in cells or lysates may run through a third protein. Some results given as binding are weak or reduced against the parent protein; the word gives no strength.",
  "data": [
    {"molecule": "CD95 (from UniProt P25445 26-335) (receptor)", "values": [
      {"measurement": "binding", "setting": "[1]", "result": "binds"},
      {"measurement": "binding", "setting": "[2]", "result": "binds"}
    ]},
    {"molecule": "B1", "values": [
      {"measurement": "binding", "setting": "[3]", "result": "binds"},
      {"measurement": "binding", "setting": "[4]", "result": "binds"},
      {"measurement": "binding", "setting": "[5]", "result": "binds"}
    ]}
  ]
}
